This is an account of results in paper PMC7862700.

The chains behind the UniProt entries cited, without tags or fusion partners. Where a name states a change or a piece, a line headed by the entry shows the natural chain unless it says otherwise.
UniProt Q01892: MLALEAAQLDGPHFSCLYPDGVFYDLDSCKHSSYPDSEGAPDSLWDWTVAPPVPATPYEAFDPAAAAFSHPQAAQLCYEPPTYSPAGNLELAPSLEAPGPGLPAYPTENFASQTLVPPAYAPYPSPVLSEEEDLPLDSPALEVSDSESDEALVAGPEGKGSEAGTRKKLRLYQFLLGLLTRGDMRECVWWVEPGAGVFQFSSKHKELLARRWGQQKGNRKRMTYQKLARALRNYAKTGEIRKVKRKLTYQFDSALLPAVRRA
UniProt P41161: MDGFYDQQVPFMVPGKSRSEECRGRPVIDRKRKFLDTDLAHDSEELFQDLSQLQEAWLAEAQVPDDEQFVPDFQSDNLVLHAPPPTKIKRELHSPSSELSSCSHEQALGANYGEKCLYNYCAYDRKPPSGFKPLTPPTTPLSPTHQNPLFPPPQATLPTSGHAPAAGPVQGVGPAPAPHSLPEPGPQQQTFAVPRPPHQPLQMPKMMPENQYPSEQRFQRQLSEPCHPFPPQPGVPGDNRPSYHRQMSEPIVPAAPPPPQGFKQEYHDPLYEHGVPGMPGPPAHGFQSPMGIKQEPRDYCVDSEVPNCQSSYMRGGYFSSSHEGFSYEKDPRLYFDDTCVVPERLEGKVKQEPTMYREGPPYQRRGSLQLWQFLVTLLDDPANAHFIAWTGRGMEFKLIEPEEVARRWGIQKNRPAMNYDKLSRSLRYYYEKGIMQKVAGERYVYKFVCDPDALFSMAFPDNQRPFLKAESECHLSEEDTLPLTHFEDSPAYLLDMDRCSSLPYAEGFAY
UniProt Q99607: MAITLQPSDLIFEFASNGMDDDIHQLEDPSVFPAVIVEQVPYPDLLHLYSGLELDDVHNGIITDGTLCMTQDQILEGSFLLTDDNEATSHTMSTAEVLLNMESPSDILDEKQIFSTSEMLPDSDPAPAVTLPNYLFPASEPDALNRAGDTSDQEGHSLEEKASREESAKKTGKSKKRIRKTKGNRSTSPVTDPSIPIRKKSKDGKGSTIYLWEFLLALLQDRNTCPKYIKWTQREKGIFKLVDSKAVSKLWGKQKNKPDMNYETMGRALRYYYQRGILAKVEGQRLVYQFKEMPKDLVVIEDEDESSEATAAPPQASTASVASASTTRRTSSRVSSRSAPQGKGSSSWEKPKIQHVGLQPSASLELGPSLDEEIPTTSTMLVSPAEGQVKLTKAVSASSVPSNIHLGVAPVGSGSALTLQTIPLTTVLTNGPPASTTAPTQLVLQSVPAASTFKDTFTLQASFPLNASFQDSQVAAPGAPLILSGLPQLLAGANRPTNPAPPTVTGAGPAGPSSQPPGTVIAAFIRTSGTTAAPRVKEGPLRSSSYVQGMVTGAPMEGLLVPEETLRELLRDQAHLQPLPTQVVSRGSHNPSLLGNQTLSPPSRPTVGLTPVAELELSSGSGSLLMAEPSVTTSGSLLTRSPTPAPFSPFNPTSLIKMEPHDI

The entries are a selection whose mix differs from that of the whole data set. At the low end of the ranking the order means little.

Targets include SPIB (UniProt Q01892); ETV5 (UniProt P41161); ELF4 (UniProt Q99607).
Common to all, as to test: DAPPL (digital affinity profiling via proximity ligation, sequencing)
What all share (conditions): 10 mM Tris-HCl pH 7.5, 50 mM NaCl, 1 mM DTT, 4% glycerol, room temperature, 30 min; GST-TFs on glutathione beads, 16-mer random dsDNA library, 0.1% …; high values mean tight binding; double strand, one strand shown; scale: fold enrichment (6-mer frequency, TF over GST control)

The target in a further experiment is T1, FLI1 (UniProt Q01543).
T1 sequence: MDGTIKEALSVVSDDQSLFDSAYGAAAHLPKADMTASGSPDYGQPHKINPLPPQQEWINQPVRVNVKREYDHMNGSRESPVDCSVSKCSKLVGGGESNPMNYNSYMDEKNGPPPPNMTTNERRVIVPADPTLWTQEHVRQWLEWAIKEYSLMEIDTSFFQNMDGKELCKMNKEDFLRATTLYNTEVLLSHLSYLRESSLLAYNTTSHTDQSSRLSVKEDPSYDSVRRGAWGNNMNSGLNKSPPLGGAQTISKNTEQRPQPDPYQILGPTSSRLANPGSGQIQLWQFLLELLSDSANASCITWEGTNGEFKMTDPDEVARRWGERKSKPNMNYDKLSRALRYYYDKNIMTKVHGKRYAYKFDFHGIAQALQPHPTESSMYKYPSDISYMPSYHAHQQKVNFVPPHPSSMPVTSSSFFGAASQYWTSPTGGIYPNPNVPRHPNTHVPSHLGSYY

The next experiment addresses T2, EHF (UniProt Q9NZC4).
T2 sequence: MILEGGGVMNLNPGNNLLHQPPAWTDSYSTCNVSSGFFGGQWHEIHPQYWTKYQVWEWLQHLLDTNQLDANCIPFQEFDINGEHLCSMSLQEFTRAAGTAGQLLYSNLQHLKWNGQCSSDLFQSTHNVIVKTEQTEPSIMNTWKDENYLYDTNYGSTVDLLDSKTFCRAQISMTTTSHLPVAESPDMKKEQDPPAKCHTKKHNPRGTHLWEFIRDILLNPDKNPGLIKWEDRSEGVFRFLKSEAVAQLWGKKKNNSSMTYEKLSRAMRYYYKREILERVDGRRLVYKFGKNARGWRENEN

The target of the next experiment is T3, ETV2 (UniProt O00321).
T3 sequence: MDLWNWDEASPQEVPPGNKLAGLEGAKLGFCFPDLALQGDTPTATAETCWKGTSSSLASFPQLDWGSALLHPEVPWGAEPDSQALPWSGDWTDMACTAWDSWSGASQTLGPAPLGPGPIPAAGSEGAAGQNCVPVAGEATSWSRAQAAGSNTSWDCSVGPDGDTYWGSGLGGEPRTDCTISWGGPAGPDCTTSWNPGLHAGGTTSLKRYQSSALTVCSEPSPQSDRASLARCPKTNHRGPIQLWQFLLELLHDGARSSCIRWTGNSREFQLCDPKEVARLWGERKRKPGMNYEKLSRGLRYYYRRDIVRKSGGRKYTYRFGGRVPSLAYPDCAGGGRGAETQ

In another experiment the target is T4, ETV3L (UniProt Q6ZN32).
T4 sequence: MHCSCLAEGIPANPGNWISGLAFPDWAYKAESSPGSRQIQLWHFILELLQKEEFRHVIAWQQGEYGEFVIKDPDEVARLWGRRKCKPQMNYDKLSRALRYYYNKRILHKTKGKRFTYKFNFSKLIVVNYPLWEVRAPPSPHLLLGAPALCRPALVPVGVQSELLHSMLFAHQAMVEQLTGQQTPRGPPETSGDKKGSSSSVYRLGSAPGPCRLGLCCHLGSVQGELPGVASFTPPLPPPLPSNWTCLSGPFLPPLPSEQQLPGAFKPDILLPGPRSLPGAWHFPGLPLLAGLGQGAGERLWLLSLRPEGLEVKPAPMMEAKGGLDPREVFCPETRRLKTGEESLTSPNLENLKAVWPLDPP

CAGGCG: the binding signal was 0.267 in the experiment with FLI1; 0.261 with EHF; 0.266 in the experiment with SPIB; 0.264 with ETV5; 0.263 in the experiment with ELF4; 0.26 with ETV2. The sequence further yielded a binding signal with ETV3L of 0.293.

Regarding CGGTCG, the binding signal with FLI1 was 0.385; with EHF, 0.46; with SPIB, 0.42; in the experiment with ETV5, 0.372; with ELF4, 0.402; in the experiment with ETV2 it was 0.362. This sequence returned a binding signal with ETV3L of 0.385.

Turning to CAGCCA, the binding signal is 0.784 with FLI1; 0.869 in the experiment with EHF; 0.866 with SPIB; 0.787 in the experiment with ETV5; 0.843 in the experiment with ELF4; 0.902 with ETV2. Further, the binding signal with ETV3L was determined as 0.845.

As for TTAGAC, the binding signal with FLI1 came to 0.925; with EHF, 0.827; with SPIB, 0.799; with ETV5, 0.824; with ELF4, 0.794; with ETV2, 0.904. Besides, in the experiment with ETV3L, the binding signal is 0.867.

With TTGTCG, the binding signal with FLI1 is 0.791; in the experiment with EHF it was 0.887; in the experiment with SPIB, 0.812; with ETV5, 0.857; in the experiment with ELF4, 0.805; with ETV2, 0.732. The same sequence returned a binding signal in the experiment with ETV3L of 0.787.

As to AGCGTT, the binding signal in the experiment with FLI1 was 0.957; with EHF, 0.881; with SPIB, 0.803; in the experiment with ETV5, 0.932; with ELF4 it was 0.932; with ETV2, 0.837. The binding signal with ETV3L was 0.905.

In the case of GAGGAA, the binding signal was 0.714 with FLI1; 0.889 with EHF; 0.796 with SPIB; 0.819 with ETV5; 0.716 with ELF4; 0.771 with ETV2. In the experiment with ETV3L, this sequence had a binding signal of 0.742.

Turning to CGTGCG, the binding signal in the experiment with FLI1 came to 0.69; with EHF, 0.623; with SPIB, 0.689; with ETV5, 0.682; with ELF4, 0.621; in the experiment with ETV2 it was 0.714. Moreover, the binding signal with ETV3L was determined as 0.616.

On to CCAAGG, for which the binding signal in the experiment with FLI1 was 0.924; with EHF it was 0.889; with SPIB, 0.827; with ETV5, 0.831; with ELF4, 0.922; in the experiment with ETV2, 0.875. Further, the binding signal in the experiment with ETV3L came to 0.946.

As for GGTACG, the binding signal in the experiment with FLI1 worked out at 0.792; with EHF, 0.854; with SPIB, 0.862; with ETV5, 0.784; with ELF4 it was 0.833; with ETV2 it was 0.806. In addition, in the experiment with ETV3L, the binding signal came to 0.864.

Turning to CGCAGG, the binding signal with FLI1 was 0.827; with EHF, 0.81; in the experiment with SPIB, 0.923; with ETV5 it was 0.833; with ELF4, 0.886; with ETV2 it was 0.897. The sequence further yielded a binding signal with ETV3L of 0.83.

As for CCAGTC, the binding signal was determined as 0.261 with FLI1; 0.263 in the experiment with EHF; 0.277 with SPIB; 0.266 in the experiment with ETV5; 0.282 with ELF4; 0.281 with ETV2. Besides, in the experiment with ETV3L, the binding signal is 0.27.

As for CGGACG, the binding signal was found to be 0.487 with FLI1; 0.486 in the experiment with EHF; 0.429 in the experiment with SPIB; 0.443 with ETV5; 0.42 with ELF4; 0.43 in the experiment with ETV2. Moreover, in the experiment with ETV3L, the binding signal worked out at 0.455.

With CAGTGC, the binding signal in the experiment with FLI1 was 0.772; with EHF it was 0.734; with SPIB, 0.745; in the experiment with ETV5, 0.77; with ELF4 it was 0.782; with ETV2, 0.639. This sequence came in with a binding signal with ETV3L of 0.688.

As to AAGCCA, the binding signal with FLI1 came to 0.88; in the experiment with EHF it was 0.826; with SPIB it was 0.839; with ETV5 it was 0.911; in the experiment with ELF4, 0.903; with ETV2, 0.837. The binding signal with ETV3L turned out to be 0.849.

With ACGGGA, the binding signal came out at 0.528 in the experiment with FLI1; 0.547 with EHF; 0.548 with SPIB; 0.517 with ETV5; 0.507 with ELF4; 0.54 with ETV2. In the experiment with ETV3L, this sequence registered a binding signal of 0.537.

With GCCGTT, the binding signal came out at 0.805 with FLI1; 0.867 in the experiment with EHF; 0.795 in the experiment with SPIB; 0.738 in the experiment with ETV5; 0.846 with ELF4; 0.813 in the experiment with ETV2. In addition, in the experiment with ETV3L, the binding signal turned out to be 0.746.

In the case of GAGGGC, the binding signal in the experiment with FLI1 came to 0.639; with EHF, 0.596; with SPIB, 0.618; with ETV5, 0.573; with ELF4, 0.581; with ETV2, 0.678. In the experiment with ETV3L, this sequence gave a binding signal of 0.557.

As for GCCGGC, the binding signal is 0.837 with FLI1; 0.824 with EHF; 0.838 with SPIB; 0.826 in the experiment with ETV5; 0.801 with ELF4; 0.812 with ETV2. The same sequence came in with a binding signal in the experiment with ETV3L of 0.742.

Consider AAGACC, for which the binding signal in the experiment with FLI1 came out at 0.845; with EHF it was 0.847; with SPIB it was 0.805; with ETV5, 0.855; with ELF4, 0.922; in the experiment with ETV2, 0.943. This sequence yielded a binding signal with ETV3L of 0.819.
